Measured values published in article PMC6090531.
These are yes or no findings as the source states them, for the method shown. Binding seen in cells or lysates may run through a third protein. Some binding calls cover weakened binding; strength is not graded here.

By UniProt entry, the sequences of proteins in these tests, tags left out. Residues count along the entry.
UniProt Q9UM47, residues 40-2321: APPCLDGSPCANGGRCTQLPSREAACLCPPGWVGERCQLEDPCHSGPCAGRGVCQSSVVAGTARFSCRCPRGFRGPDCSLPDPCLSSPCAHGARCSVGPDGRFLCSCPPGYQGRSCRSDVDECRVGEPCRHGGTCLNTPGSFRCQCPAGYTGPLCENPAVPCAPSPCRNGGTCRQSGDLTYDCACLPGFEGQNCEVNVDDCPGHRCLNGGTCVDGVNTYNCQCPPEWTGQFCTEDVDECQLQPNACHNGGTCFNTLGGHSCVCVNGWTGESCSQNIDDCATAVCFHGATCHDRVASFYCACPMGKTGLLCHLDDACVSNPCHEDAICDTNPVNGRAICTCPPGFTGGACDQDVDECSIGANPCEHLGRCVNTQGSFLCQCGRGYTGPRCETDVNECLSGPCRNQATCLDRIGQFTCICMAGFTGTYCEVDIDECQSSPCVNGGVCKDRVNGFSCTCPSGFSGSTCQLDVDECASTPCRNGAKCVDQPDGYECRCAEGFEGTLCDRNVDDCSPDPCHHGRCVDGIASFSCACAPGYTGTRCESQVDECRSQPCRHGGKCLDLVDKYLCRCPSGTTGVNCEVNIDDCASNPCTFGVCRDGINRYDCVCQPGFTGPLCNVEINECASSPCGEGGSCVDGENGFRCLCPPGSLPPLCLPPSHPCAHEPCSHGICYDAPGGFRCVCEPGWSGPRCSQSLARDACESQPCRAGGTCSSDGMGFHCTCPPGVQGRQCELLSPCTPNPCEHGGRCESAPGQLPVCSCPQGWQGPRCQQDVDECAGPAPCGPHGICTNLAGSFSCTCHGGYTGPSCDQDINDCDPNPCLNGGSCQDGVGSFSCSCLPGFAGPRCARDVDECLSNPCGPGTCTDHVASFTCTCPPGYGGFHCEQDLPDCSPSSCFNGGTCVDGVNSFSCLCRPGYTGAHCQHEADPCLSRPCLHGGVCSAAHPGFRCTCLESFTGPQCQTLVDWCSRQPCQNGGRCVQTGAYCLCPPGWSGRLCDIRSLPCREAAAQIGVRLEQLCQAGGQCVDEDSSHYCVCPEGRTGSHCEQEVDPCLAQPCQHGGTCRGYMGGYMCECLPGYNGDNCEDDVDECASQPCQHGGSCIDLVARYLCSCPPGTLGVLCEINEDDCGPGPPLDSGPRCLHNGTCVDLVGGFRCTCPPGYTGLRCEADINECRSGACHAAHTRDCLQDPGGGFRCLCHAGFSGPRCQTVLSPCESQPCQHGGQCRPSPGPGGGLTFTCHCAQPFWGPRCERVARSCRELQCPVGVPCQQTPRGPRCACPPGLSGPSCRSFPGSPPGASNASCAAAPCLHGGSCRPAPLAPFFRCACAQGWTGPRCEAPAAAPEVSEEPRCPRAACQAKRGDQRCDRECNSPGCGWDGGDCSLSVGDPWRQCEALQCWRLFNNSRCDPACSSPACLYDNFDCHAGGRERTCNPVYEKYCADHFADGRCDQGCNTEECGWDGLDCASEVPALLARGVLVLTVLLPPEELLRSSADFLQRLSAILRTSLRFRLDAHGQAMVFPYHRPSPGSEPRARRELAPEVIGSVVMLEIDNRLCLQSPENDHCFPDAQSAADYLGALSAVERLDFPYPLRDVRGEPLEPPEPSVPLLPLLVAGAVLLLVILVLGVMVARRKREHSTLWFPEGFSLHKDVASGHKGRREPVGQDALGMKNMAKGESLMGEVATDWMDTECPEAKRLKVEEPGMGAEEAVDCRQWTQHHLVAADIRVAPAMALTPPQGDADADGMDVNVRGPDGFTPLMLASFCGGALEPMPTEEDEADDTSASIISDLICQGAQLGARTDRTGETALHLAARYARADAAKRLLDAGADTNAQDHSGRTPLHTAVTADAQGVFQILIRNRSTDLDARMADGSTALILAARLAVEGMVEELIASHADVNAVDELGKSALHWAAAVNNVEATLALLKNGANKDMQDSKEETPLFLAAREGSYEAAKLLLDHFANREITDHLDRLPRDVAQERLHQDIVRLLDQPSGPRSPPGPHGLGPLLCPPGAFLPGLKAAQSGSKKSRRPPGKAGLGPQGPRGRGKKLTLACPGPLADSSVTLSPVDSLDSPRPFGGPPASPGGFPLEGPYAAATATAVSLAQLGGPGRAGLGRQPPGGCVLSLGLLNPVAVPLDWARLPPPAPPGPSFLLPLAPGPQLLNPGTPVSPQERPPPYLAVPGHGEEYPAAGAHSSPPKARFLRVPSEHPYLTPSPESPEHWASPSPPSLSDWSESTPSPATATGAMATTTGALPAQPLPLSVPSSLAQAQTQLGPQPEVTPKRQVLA
UniProt P35222: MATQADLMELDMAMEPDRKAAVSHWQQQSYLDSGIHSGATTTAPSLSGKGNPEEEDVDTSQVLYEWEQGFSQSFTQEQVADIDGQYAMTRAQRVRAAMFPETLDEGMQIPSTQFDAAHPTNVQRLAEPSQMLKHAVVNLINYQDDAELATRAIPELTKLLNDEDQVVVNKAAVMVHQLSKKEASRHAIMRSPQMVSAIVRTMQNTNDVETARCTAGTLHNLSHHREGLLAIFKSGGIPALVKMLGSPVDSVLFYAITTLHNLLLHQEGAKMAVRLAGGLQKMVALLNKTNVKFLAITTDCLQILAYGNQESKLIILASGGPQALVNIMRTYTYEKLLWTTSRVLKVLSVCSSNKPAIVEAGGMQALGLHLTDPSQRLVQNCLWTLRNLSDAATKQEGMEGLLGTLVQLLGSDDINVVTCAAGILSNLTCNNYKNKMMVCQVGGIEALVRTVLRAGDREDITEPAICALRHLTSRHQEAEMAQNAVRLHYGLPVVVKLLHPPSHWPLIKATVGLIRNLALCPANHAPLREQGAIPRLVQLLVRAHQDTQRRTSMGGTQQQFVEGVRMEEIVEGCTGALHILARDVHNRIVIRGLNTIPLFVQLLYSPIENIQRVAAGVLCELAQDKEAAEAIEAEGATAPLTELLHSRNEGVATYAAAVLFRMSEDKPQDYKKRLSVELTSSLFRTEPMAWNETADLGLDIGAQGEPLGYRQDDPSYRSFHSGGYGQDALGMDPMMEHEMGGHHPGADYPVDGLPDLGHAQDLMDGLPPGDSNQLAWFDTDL

Target: Notch3 (human (endogenous in HCC827 and HCC4006)) (UniProt Q9UM47)
Assay: co-IP; endogenous proteins; 2 mg lysate of HCC827 or HCC4006 cells in NP40 lysis buffer (10 mM phosphate, 120 mM NaCl, 2.7 mM KCl, 1% Nonidet P40, 10% glycerol); IP with anti-Notch3 (D11B8) or, reciprocally, anti-β-catenin (D10A8), protein G magnetic beads, western blot; cells treated with DMSO or 0.1 μM erlotinib for 1 or 6 days, or erlotinib and gamma secretase inhibitor alone or combined

binding: binds
Substance: β-catenin (from UniProt P35222 1-781)
